These are yes or no findings as the source states them, for the method shown. In cells and extracts the contact can be indirect. For part of these data: A result given as binding can be weak or reduced; the word gives no strength. Tags and fused reporters may be left off the sequences shown.

In PMC10454365 one finds binding data, which are given here for 1 molecule.

Common to all, as to assay: pull-down; GST-tagged LY6K constructs co-expressed with flag-tagged TbR1 in 293T cells; lysates in RIPA buffer; Glutathione Sepharose 4B beads; Western blot with Flag and GST antibodies
A general note: In western blotting, separated proteins are transferred to a membrane and probed.

Assay [1] addresses GST-tagged LY6K fragment 58–98 (human).
In assay [2] the target is GST-tagged LY6K fragment 98–138 (human).
The target of assay [3] is GST-tagged LY6K residues 18–58 (human).

B1: Flag-tagged TbR1 (receptor, UniProt P36897 34-503)
chain: LQCFCHLCTKDNFTCVTDGLCFVSVTETTDKVIHNSMCIAEIDLIPRDRPFVCAPSSKTGSVTTTYCCNQDHCNKIELPTTVKSSPGLGPVELAAVIAGPVCFVCISLMLMVYICHNRTVIHHRVPNEEDPSLDRPFISEGTTLKDLIYDMTTSGSGSGLPLLVQRTIARTIVLQESIGKGRFGEVWRGKWRGEEVAVKIFSSREERSWFREAEIYQTVMLRHENILGFIAADNKDNGTWTQLWLVSDYHEHGSLFDYLNRYTVTVEGMIKLALSTASGLAHLHMEIVGTQGKPAIAHRDLKSKNILVKKNGTCCIADLGLAVRHDSATDTIDIAPNHRVGTKRYMAPEVLDDSINMKHFESFKRADIYAMGLVFWEIARRCSIGGIHEDYQLPYYDLVPSDPSVEEMRKVVCEQKLRPNIPNRWQSCEALRVMAKIMRECWYANGAARLTALRIKKTLSQLSQQEGIKM
As for B1, the binding entry in assay [1] is given as “binds”; in assay [2], “binds”; in assay [3] it was “no binding”.
